Assay results taken from the supplement of paper PMC7661543.
Differences between knockout arms are mostly noise.

What was measured:
Experiment in all cases: relative cell number vs DMSO control (72 h) (% of DMSO); higher = less growth inhibition (more cells)
BT-20 = tested on: BT-20
Method: (§1)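 QMAP-Seq: a pool of 5 breast cancer cell lines (ZR-75-1, SKBR3, HCC-38, MDA-MB-231, BT-20), each carrying 12 doxycycline-inducible Cas9 sgRNA perturbations (11 knockouts plus non-targeting sgNT), was treated with compounds for 72 h at four 10-fold doses (10 nM-10 uM or 1 nM-1 uM range). Barcodes were amplified and sequenced, and cell number was interpolated from 293T spike-in standard curves. The result is expressed as % of the median of DMSO wells. Two biological replicates.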

SKBR3 = tested on: SKBR3
Method: as §1

ZR-75-1 = tested on: ZR-75-1
Method: as §1

CC(C)(C(=O)NCC(F)(F)C(F)(F)F)C(=O)N[C@@H]1C(=O)Nc2ccccc2-c2ccccc21
relative cell number
Settings	BT-20	SKBR3	ZR-75-1
sgRNA knockout: sgATF3, 10 nM	96.2	130	88.2
sgRNA knockout: sgATF3, 100 nM	105	118	119
sgRNA knockout: sgATF3, 1000 nM	113	111	104
sgRNA knockout: sgATF3, 10000 nM	120	125	103
sgRNA knockout: sgATF4, 10 nM	104	90.4	70.4
sgRNA knockout: sgATF4, 100 nM	122	89.3	123
sgRNA knockout: sgATF4, 1000 nM	119.4	84.12	124
sgRNA knockout: sgATF4, 10000 nM	123	105	118
sgRNA knockout: sgATF6, 10 nM	105	88.6	113
sgRNA knockout: sgATF6, 100 nM	100.4	91.5	128
sgRNA knockout: sgATF6, 1000 nM	92.5	96.47	88.1
sgRNA knockout: sgATF6, 10000 nM	116	100	110
sgRNA knockout: sgATG7, 10 nM	98.8	113	92.9
sgRNA knockout: sgATG7, 100 nM	109	99.9	105
sgRNA knockout: sgATG7, 1000 nM	104	123	94.7
sgRNA knockout: sgATG7, 10000 nM	111	106	89
sgRNA knockout: sgERN1, 10 nM	98.4	108	90.2
sgRNA knockout: sgERN1, 100 nM	106	96.1	88.3
sgRNA knockout: sgERN1, 1000 nM	107	92.2	114
sgRNA knockout: sgERN1, 10000 nM	116	103	96.1
sgRNA knockout: sgHSF1, 10 nM	88	109	–
sgRNA knockout: sgHSF1, 100 nM	103	88.3	–
sgRNA knockout: sgHSF1, 1000 nM	110	83.1	–
sgRNA knockout: sgHSF1, 10000 nM	108	91.9	–
sgRNA knockout: sgHSF2, 10 nM	89.6	103	75.2
sgRNA knockout: sgHSF2, 100 nM	113	100	99.6
sgRNA knockout: sgHSF2, 1000 nM	132	102	90.8
sgRNA knockout: sgHSF2, 10000 nM	124	92.6	81.9
sgRNA knockout: sgKEAP1, 10 nM	96.6	99.3	–
sgRNA knockout: sgKEAP1, 100 nM	87.6	92.4	–
sgRNA knockout: sgKEAP1, 1000 nM	100	103	–
sgRNA knockout: sgKEAP1, 10000 nM	113	88.6	–
sgRNA knockout: sgNFE2L2, 10 nM	111	92.8	81.9
sgRNA knockout: sgNFE2L2, 100 nM	125	117	101
sgRNA knockout: sgNFE2L2, 1000 nM	124	81.4	96.1
sgRNA knockout: sgNFE2L2, 10000 nM	138	97.6	117
sgRNA knockout: sgSLC35F2, 10 nM	92.6	107	98.6
sgRNA knockout: sgSLC35F2, 100 nM	105	108	113
sgRNA knockout: sgSLC35F2, 1000 nM	96.8	99.21	79.1
sgRNA knockout: sgSLC35F2, 10000 nM	122	99.8	116
sgRNA knockout: sgXBP1, 10 nM	108	104	82.5
sgRNA knockout: sgXBP1, 100 nM	123.4	116	83.8
sgRNA knockout: sgXBP1, 1000 nM	123	128	86.4
sgRNA knockout: sgXBP1, 10000 nM	129	118	86.6

CC(C)OC(=O)C1=CN(C(=O)c2ccc(F)c(F)c2)CC(C)(C)c2c1[nH]c1ccccc21
relative cell number
Settings	BT-20	SKBR3	ZR-75-1
sgRNA knockout: sgATF3, 10 nM	93.8	87.1	74.5
sgRNA knockout: sgATF3, 100 nM	82.8	91.8	113
sgRNA knockout: sgATF3, 1000 nM	95.1	92.5	112
sgRNA knockout: sgATF3, 10000 nM	86.8	97.2	97.1
sgRNA knockout: sgATF4, 10 nM	87.4	82.3	92.3
sgRNA knockout: sgATF4, 100 nM	100	101	98.5
sgRNA knockout: sgATF4, 1000 nM	97.4	90.3	126
sgRNA knockout: sgATF4, 10000 nM	106	83.1	114
sgRNA knockout: sgATF6, 10 nM	93.5	74.3	103
sgRNA knockout: sgATF6, 100 nM	77	99.2	106
sgRNA knockout: sgATF6, 1000 nM	113	90.64	101
sgRNA knockout: sgATF6, 10000 nM	101	104.8	87
sgRNA knockout: sgATG7, 10 nM	92.34	77.6	86.1
sgRNA knockout: sgATG7, 100 nM	94.5	116	91.8
sgRNA knockout: sgATG7, 1000 nM	105	101	86.4
sgRNA knockout: sgATG7, 10000 nM	95.7	115	69.2
sgRNA knockout: sgERN1, 10 nM	98.2	102	92.4
sgRNA knockout: sgERN1, 100 nM	82.2	75.3	76.9
sgRNA knockout: sgERN1, 1000 nM	103.5	134	83.4
sgRNA knockout: sgERN1, 10000 nM	110	104	88
sgRNA knockout: sgHSF1, 10 nM	90.462	77	–
sgRNA knockout: sgHSF1, 100 nM	91.58	84.1	–
sgRNA knockout: sgHSF1, 1000 nM	87.5	93	–
sgRNA knockout: sgHSF1, 10000 nM	98.6	104	–
sgRNA knockout: sgHSF2, 10 nM	98	91.9	92.1
sgRNA knockout: sgHSF2, 100 nM	96	104	101
sgRNA knockout: sgHSF2, 1000 nM	91.6	96.4	97.7
sgRNA knockout: sgHSF2, 10000 nM	96.3	85.98	111
sgRNA knockout: sgKEAP1, 10 nM	91.4	90.6	–
sgRNA knockout: sgKEAP1, 100 nM	91.3	108	–
sgRNA knockout: sgKEAP1, 1000 nM	99.1	90.3	–
sgRNA knockout: sgKEAP1, 10000 nM	93.9	101	–
sgRNA knockout: sgNFE2L2, 10 nM	95.4	102	90.9
sgRNA knockout: sgNFE2L2, 100 nM	85.6	94.34	105
sgRNA knockout: sgNFE2L2, 1000 nM	102	95.3	121
sgRNA knockout: sgNFE2L2, 10000 nM	97.9	95.1	105
sgRNA knockout: sgSLC35F2, 10 nM	92.6	88.8	111
sgRNA knockout: sgSLC35F2, 100 nM	83.9	106	89.8
sgRNA knockout: sgSLC35F2, 1000 nM	95.2	95.2	67.4
sgRNA knockout: sgSLC35F2, 10000 nM	112	91.5	101
sgRNA knockout: sgXBP1, 10 nM	91.8	88.5	91.3
sgRNA knockout: sgXBP1, 100 nM	111	119	101
sgRNA knockout: sgXBP1, 1000 nM	108	108	111
sgRNA knockout: sgXBP1, 10000 nM	108	102	97.1
